According to PubChem BioAssay AID256 (DTP/NCI, 2004):
The list is a part of this screen's results and no random one: it is rich in T/C values a quarter to a half above the control, in often repeated tests (any T/C) and in doses without a T/C. Other doses and runs of a compound stand elsewhere. T/C gives the treated animals as a percentage of the vehicle group. Some doses have a count of surviving animals in place of a T/C: the source files T/C as zero there, which appears to mark a toxic dose or a test without result, not a measured value. Survivors were counted at the toxicity check, usually on the fifth day, unless a day is given; later deaths do not show. Schedule codes are those of the source, taken here to give the interval after Q, in days (D) or hours (H), and the number of doses after X. For survival time, the PubChem record calls one and a half times the control and up active, and a quarter to a half above the control has no call in these data; cut-offs in other NCI protocols can differ. Brackets with × stand for listed records that agree. Some entries hold several experiments; the results are listed from low to high. Some T/C values are followed by the survivors on the day toxicity was checked, most often the fifth; without a count, all were alive then.

Tested on: CD2F1 mice, L1210 leukemia ip, survival T/C
Experiment: NCI In Vivo Anticancer Drug Screen. Data for tumor model L1210 Leukemia (intraperitoneal) in CD2F1 (CDF1) mice
Settings: T/C endpoint: mean survival time, higher T/C = longer survival
How it was run: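 Antitumor effect is scored in animals hosting a serially transplanted tumor. Values compare compound-dosed animals against vehicle-only controls as a simple quotient.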

Nc1nc([Se])c2ncn(C3OC(CO)C(O)C3O)c2n1 (stereo unspecified)
T/C (dose: 2.0 mg/kg/injection, schedule: Q01DX009 (ip), vehicle: saline): 128, 129, 132, 136 % of control | T/C (dose: 2.5 mg/kg/injection, schedule: Q01DX005 (ip), vehicle: water): 132 % of control | T/C (dose: 3.12 mg/kg/injection, schedule: Q01DX009 (ip), vehicle: saline): 135 % of control | T/C (dose: 4.0 mg/kg/injection, schedule: Q01DX009 (ip), vehicle: distilled water + Tween-80): 134 % of control | T/C (dose: 4.0 mg/kg/injection, schedule: Q01DX009 (ip), vehicle: saline): 130, 132, 139, 143 % of control | T/C (dose: 4.0 mg/kg/injection, schedule: Q01DX009 (ip), vehicle: water): 136 % of control | T/C (dose: 4.0 mg/kg/injection, schedule: Q04DX003 (ip), vehicle: clinical formulation): 129 % of control (2×) | T/C (dose: 4.0 mg/kg/injection, schedule: Q04DX003 (ip), vehicle: saline): 106, 113, 118, 134 % of control | T/C (dose: 5.0 mg/kg/injection, schedule: Q01DX005 (ip), vehicle: water): 125 % of control | T/C (dose: 6.25 mg/kg/injection, schedule: Q01DX009 (ip), vehicle: saline): 132 % of control | T/C (dose: 8.0 mg/kg/injection, schedule: Q01DX009 (ip), vehicle: distilled water + Tween-80): 136 % of control | T/C (dose: 8.0 mg/kg/injection, schedule: Q01DX009 (ip), vehicle: saline): 125, 131, 132, 144 % of control | T/C (dose: 8.0 mg/kg/injection, schedule: Q01DX009 (ip), vehicle: water): 136 % of control | T/C (dose: 8.0 mg/kg/injection, schedule: Q04DX003 (ip), vehicle: DMSO): 132 % of control | T/C (dose: 8.0 mg/kg/injection, schedule: Q04DX003 (ip), vehicle: clinical formulation): 136 and 139 % of control | T/C (dose: 8.0 mg/kg/injection, schedule: Q04DX003 (ip), vehicle: saline): 113, 123, 131, 141 % of control | T/C (dose: 10.0 mg/kg/injection, schedule: Q01DX005 (ip), vehicle: water): 140 % of control | T/C (dose: 10.0 mg/kg/injection, schedule: Q01DX005 (iv), vehicle: water): 136 % of control | T/C (dose: 12.5 mg/kg/injection, schedule: Q01DX005 (ip), vehicle: saline): 144 % of control | T/C (dose: 12.5 mg/kg/injection, schedule: Q01DX009 (ip), vehicle: saline): 132 % of control | T/C (dose: 16.0 mg/kg/injection, schedule: Q01DX009 (ip), vehicle: saline): 131, 134, 137, 150 % of control | T/C (dose: 16.0 mg/kg/injection, schedule: Q04DX003 (ip), vehicle: DMSO): 136 % of control | T/C (dose: 16.0 mg/kg/injection, schedule: Q04DX003 (ip), vehicle: clinical formulation): 126, 137, 143 % of control | T/C (dose: 16.0 mg/kg/injection, schedule: Q04DX003 (ip), vehicle: saline): 125, 128, 139, 145 % of control | T/C (dose: 20.0 mg/kg/injection, schedule: Q01DX005 (ip), vehicle: water): 148 % of control | T/C (dose: 20.0 mg/kg/injection, schedule: Q01DX005 (iv), vehicle: water): 146 % of control | T/C (dose: 25.0 mg/kg/injection, schedule: Q01DX005 (ip), vehicle: saline): 142 % of control | T/C (dose: 25.0 mg/kg/injection, schedule: Q01DX009 (ip), vehicle: saline): 140 % of control | T/C (dose: 32.0 mg/kg/injection, schedule: Q01DX009 (ip), vehicle: saline): 136 % of control | T/C (dose: 32.0 mg/kg/injection, schedule: Q04DX003 (ip), vehicle: DMSO): 145 % of control | T/C (dose: 32.0 mg/kg/injection, schedule: Q04DX003 (ip), vehicle: clinical formulation): 126, 134, 138 % of control | T/C (dose: 32.0 mg/kg/injection, schedule: Q04DX003 (ip), vehicle: saline): 128, 131, 134, 143 % of control | T/C (dose: 40.0 mg/kg/injection, schedule: Q01DX005 (ip), vehicle: water): 141 % of control | T/C (dose: 50.0 mg/kg/injection, schedule: Q01DX005 (ip), vehicle: saline): 142 % of control | survivor count (dose: 50.0 mg/kg/injection, schedule: Q01DX009 (ip), vehicle: saline): 4 of 8 | survivor count (dose: 64.0 mg/kg/injection, schedule: Q01DX009 (ip), vehicle: saline): 0 of 6 | T/C (dose: 64.0 mg/kg/injection, schedule: Q04DX003 (ip), vehicle: DMSO): 125 % of control [4 of 6 alive] | T/C (dose: 64.0 mg/kg/injection, schedule: Q04DX003 (ip), vehicle: clinical formulation): 127, 128, 129 % of control | T/C (dose: 64.0 mg/kg/injection, schedule: Q04DX003 (ip), vehicle: saline): 125, 126, 130, 140 % of control | T/C (dose: 128.0 mg/kg/injection, schedule: Q04DX003 (ip), vehicle: DMSO): 138 % of control [5 of 6 alive] | T/C (dose: 128.0 mg/kg/injection, schedule: Q04DX003 (ip), vehicle: clinical formulation): 130 % of control [4 of 6 alive]
